# Assay results: US20110092476A1, “Bicycloheteroaryl compounds as P2X7 modulators and uses thereof” (Renovis, Inc., priority 2006, published 2011)
# Test: Pharmacokinetic evaluation following intravenous and oral administration in rats (oral bioavailability)
# Settings: male Sprague-Dawley rats, PO 1 to 5 mg/kg vs IV 1 mg/kg, AUCinf dose-normalized
smiles,measurement,value
"O=C(Cc1ccc(Cl)c(C(F)(F)F)c1)Nc1cccc2c(=O)n(CCO)ccc12 [Compound 65, 2-(4-Chloro-3-trifluoromethyl-phenyl)-N-[2-(2-hydroxy-ethyl)-1-oxo-1,2-dihydro-isoquinolin-5-yl]-acetamide]",Oral Bioavailability F (%),+ (0-25% F)
